At least one result comes from cells or an extract, where the contact may be indirect. Protein sequences can lack the tags named with them.

The target in one series is T1, C/EBPβ (Mus musculus) (UniProt P28033).
T1 sequence (looked up): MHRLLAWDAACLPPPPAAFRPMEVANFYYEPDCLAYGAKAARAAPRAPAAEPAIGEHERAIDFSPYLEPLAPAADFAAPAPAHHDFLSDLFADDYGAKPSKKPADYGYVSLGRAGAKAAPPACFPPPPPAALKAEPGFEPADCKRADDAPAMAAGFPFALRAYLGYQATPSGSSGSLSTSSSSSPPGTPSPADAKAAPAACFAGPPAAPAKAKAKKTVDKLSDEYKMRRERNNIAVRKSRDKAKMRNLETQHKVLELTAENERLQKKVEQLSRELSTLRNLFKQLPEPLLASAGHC
As to the kind of experiment: EMSA. Conditions: 5mC at the CpG of CRE (TGAmCGTCA) on both strands; robust binding, completely shifted by anti-C/EBPβ; 10 mM HEPES pH 7.9, 80 mM KCl, 1 mM MgCl2, poly(dI-dC), room temperature; protein in a lysate after overexpression; label: 32P 5' end. (Mobility shift assays separate free from complexed probe on a gel.)

For another series, the system named is T2, RORγt (Mus musculus).
T2 sequence (looked up, limits assumed): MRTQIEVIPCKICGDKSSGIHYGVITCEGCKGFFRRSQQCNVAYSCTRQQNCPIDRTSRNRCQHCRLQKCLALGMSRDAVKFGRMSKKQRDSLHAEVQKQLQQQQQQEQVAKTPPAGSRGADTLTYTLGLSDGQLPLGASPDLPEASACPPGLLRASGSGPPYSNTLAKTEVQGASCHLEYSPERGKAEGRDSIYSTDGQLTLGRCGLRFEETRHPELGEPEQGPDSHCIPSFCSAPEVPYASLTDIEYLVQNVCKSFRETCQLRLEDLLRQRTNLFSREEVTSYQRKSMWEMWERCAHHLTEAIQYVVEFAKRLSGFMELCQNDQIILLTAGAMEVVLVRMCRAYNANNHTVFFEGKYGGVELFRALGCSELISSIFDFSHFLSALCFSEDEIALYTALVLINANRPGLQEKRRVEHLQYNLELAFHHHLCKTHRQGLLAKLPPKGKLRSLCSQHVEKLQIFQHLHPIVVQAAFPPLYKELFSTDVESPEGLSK
Nature of the series: EMSA. Conditions: binding completely abolished by co-expression of C/EBPβ; protein in a lysate after overexpression; protein details: mouse cDNA from TH17 cells, nuclear extract; label: 32P 5' end.

Take “CCGGCCGCCATGACGTCAATGGCAGAAA (double strand) [Foxp3 TSDR methyl-CRE probe]”: the binding result with C/EBPβ (Mus musculus) is “binds”.
Take “GAAAGTTTTCTGACCCACTTTAAATCAATTT (double strand) [RORE in IL17 CNS2 probe]”: in the series on RORγt (Mus musculus), the binding result is on record as “binds”.

The values are drawn from patent US20150368611.
